Some entries share one result that the patent states for a list of compounds.
Tested on: Staphylococcus aureus
Assay: MIC assay using Staphylococcus aureus in trypticase soy broth, growth scored by turbidity
Type: cell-based
Settings: S. aureus at pH 5.0
Procedure: Minimal inhibitory concentration (MIC) assays of several hop compounds were conducted using a Staphylococcus aureus species and vaginal isolates Lactobacillus vaginalias, Lactobacillus crispatus, Lactobacillus gasseri, and Lactobacillus jensenii as test microorganisms. Lactobacillus assays were conducted in Lactobacillus MRS broth (Difco) tubes. A 0.1 ml aliquot of a 1% (w/w) solution of each hop acid in alcohol was added to a tube of sterile MRS broth to give a final concentration of 100 ppm of the hop. This solution was serially diluted in tubes with sterile MRS broth using a two-fold dilution series. A second dilution series prepared as above, but using 0.1 ml alcohol without hop acid, was used as a positive control of bacterial growth. Each tube was inoculated with a fresh culture (10^4 cells) of a Lactobacillus species in MRS broth. The cultures were incubated anaerobically in a CO2 incubator at 28° C. for five days. Growth was evaluated by visually assessing and scoring development of turbidity in the tube of broth.
The MIC assays for Staphylococcus aureus were conducted in Difco trypticase soy broth (TSB) using the same serial dilution technique and the inoculum level as described above. […] The tubes were incubated aerobically at 37° C. for three days and growth was evaluated by visually assessing and scored the development of turbidity in the broth.

Q: How did the minimum inhibitory concentration turn out when hexahydro beta acids was run?
A: The minimum inhibitory concentration was “less than 0.2 ppm”.

Source: patent publication US7005453B1, “Use of hop acids to inhibit growth of Staphylococcus aureus and prevent toxic shock syndrome” (Miller Brewing Company, priority 1999, dated 2006)
